Test results: paper PMC10767194 (The Journal of Biological Chemistry, 2023)
No constants are given. Whether binding was seen depends on the method and setting. Some entries that bind do so weakly or less than the wild type.

The chains behind the UniProt entries cited, without tags or fusion partners. Where a name states a change or a piece, a line headed by the entry shows the natural chain unless it says otherwise. A line that says so, or that is headed by a name, gives the form on record, which may keep a tag or linker. Residues count along the entry.
UniProt P11802: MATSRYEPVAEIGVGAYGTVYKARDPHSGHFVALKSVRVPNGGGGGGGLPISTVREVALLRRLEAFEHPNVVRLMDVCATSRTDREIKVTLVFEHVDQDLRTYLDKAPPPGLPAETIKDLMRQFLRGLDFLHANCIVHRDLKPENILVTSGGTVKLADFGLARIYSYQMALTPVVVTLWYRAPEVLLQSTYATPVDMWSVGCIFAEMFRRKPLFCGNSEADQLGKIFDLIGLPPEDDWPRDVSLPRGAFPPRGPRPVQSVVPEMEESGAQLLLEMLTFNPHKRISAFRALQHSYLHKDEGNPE
Cdk12 kinase domain (residues 714–1063), WT, not coexpressed with CAK1 (Q9NYV4, residues 714-1063): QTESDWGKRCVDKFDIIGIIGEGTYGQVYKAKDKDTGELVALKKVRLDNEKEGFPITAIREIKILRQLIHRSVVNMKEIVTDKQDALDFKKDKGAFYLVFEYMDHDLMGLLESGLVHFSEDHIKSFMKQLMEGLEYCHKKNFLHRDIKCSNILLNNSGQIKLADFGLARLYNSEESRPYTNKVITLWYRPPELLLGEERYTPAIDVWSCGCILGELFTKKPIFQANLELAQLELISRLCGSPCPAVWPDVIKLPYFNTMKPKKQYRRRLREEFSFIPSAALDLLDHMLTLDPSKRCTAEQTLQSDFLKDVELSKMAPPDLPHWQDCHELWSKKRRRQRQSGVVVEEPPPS
Cdk12 D859N kinase domain (residues 714–1063), kinase dead mutant (Q9NYV4, form named): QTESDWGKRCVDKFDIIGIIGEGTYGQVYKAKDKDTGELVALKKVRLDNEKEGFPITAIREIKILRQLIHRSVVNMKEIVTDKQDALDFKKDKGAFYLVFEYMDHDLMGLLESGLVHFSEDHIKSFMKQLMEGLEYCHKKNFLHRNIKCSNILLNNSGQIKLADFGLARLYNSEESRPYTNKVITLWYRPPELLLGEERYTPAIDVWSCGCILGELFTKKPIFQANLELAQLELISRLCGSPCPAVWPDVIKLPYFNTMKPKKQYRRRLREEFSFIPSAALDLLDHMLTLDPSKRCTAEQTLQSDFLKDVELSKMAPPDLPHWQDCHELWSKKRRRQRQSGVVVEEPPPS
UniProt Q14004, residues 694-1039: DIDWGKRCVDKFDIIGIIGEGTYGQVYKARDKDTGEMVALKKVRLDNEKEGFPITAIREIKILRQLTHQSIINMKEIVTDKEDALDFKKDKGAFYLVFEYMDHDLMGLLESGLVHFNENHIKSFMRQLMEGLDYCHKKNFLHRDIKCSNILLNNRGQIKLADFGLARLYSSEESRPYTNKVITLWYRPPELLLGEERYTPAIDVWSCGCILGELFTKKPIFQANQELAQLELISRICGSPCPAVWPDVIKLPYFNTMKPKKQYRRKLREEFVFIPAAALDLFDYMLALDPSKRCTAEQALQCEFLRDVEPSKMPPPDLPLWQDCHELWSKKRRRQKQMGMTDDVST
UniProt Q15131: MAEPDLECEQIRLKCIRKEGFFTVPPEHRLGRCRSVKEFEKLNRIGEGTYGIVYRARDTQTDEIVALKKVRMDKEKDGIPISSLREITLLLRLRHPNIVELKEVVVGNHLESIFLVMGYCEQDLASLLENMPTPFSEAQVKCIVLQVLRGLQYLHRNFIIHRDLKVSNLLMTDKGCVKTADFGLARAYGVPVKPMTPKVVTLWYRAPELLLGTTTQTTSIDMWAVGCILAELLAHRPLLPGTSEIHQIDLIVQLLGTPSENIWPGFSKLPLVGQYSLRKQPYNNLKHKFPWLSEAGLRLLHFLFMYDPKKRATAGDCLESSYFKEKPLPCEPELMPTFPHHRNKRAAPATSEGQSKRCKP
UniProt P30281: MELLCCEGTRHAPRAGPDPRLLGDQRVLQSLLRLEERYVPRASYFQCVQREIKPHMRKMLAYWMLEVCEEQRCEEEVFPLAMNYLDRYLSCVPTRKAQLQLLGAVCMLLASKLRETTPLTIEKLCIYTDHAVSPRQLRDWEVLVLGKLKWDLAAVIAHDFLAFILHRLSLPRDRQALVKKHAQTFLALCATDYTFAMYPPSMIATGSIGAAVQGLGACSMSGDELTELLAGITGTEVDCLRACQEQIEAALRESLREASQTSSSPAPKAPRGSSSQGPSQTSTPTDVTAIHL

Assays:
[1] = biological target: Cdk4, full-length, WT (residues 1–303) (human) (UniProt P11802); test: SEC; co-purification of Cdk4 and cyclin D3 coexpressed in Sf9: GST-affinity chromatography, TEV-mediated tag removal, SEC, as described (ref. 53)
[2] = biological target: Cdk12 kinase domain (residues 714–1063), WT, not coexpressed with CAK1 (human) (UniProt Q9NYV4); test: SEC; co-purification of coexpressed kinase and CycK from Sf9: GSTrap, TEV digest, Superdex 200 in 20 mM Hepes pH 7.8, 400 mM NaCl, 1 mM TCEP, 5% glycerol; fractions with the complex monitored by SDS-PAGE
[3] = biological target: Cdk12 D859N kinase domain (residues 714–1063), kinase dead mutant (human) (UniProt Q9NYV4); test: as above
[4] = biological target: Cdk13 kinase domain (residues 694–1039) (human) (UniProt Q14004); test: as above
[5] = biological target: Cdk10, full-length, WT (residues 1–360) (human) (UniProt Q15131); test: SEC; co-purification of Cdk10 and CycQ coexpressed in Sf9: affinity chromatography and gel filtration, as described (ref. 54)

cyclin D3, full-length, WT (residues 1–292) (from UniProt P30281 1-292)
binding [1]: binds

B1: cyclin K cyclin box domains (residues 1–267) (domain or fragment, human, UniProt O75909 1-267, looked up)
chain: MKENKENSSPSVTSANLDHTKPCWYWDKKDLAHTPSQLEGLDPATEARYRREGARFIFDVGTRLGLHYDTLATGIIYFHRFYMFHSFKQFPRYVTGACCLFLAGKVEETPKKCKDIIKTARSLLNDVQFGQFGDDPKEEVMVLERILLQTIKFDLQVEHPYQFLLKYAKQLKGDKNKIQKLVQMAWTFVNDSLCTTLSLQWEPEIIAVAVMYLAGRLCKFEIQEWTSKPMYRRWWEQFVQDVPVDVLEDICHQILDLYSQGKQQMPH
notes: cyclin box domains of human cyclin K, residues 1–267, UniProt O75909; synthetic codon-optimised gene; The final model of 8P81 holds residues 20 to 260 of CycK; also called CycK; not shown: GST, N-terminal, cleaved
binding [2]: binds
binding [3]: binds
binding [4]: binds

B2: cyclin Q, full-length, WT (residues 1–248) (protein, UniProt Q8N1B3 1-248)
chain: MEAPEGGGGGPAARGPEGQPAPEARVHFRVARFIMEAGVKLGMRSIPIATACTIYHKFFCETNLDAYDPYLIAMSSIYLAGKVEEQHLRTRDIINVSNRYFNPSGEPLELDSRFWELRDSIVQCELLMLRVLRFQVSFQHPHKYLLHYLVSLQNWLNRHSWQRTPVAVTAWALLRDSYHGALCLRFQAQHIAVAVLYLALQVYGVEVPAEVEAEKPWWQVFNDDLTKPIIDNIVSDLIQIYTMDTEIP
binding [5]: binds
